PubChem BioAssay AID1508597 – Cure First | 2020
Test: 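Genes whose silencing sensitises or protects ovarian cancer cells against rucaparib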 (primary screen). Cells: human ovarian carcinoma lines grown from tumours: OCI-P5x (papillary serous) and OCI-C5x (clear cell). Knock-down reagent: siRNA pool against human genes, 1.25 pmol siRNA per well. Duration: 72 h or 96 h, depending on the cell culture. Conditions: rucaparib 20 µM (about IC30) or vehicle, present until read-out. Rucaparib or vehicle: Vehicle. Cell line: OCI-C5x (clear cell). Read-out: 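ATP luminescence measured at 72 or 96 h according to the culture, then normalised and expressed as percent viability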. Scale: viability, normalised: higher = more viable cells remaining. Call rule: 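Active when normalised viability falls below 80 percent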. Calls: active = viability under 80%; inactive = viability 80% or more.
This is an unselected part of the about 2,100 reagents, in one setting of the screen. 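Calls flag viability under 80% in either arm, not effects specific to rucaparib; the reference for percent is not stated.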 A reagent listed more than once was tested more than once; the source does not tell the runs apart. Not given: the 100% reference.

| gene | PubChem SID | technical replicate | viability, normalised (%) | activity call |
| --- | --- | --- | --- | --- |
| RPL3 (ribosomal protein L3) | SID405526532 | 1 | 28.1 | active |
| RPL3 (ribosomal protein L3) | SID405526532 | 2 | 31.2 | active |
| RPL3 (ribosomal protein L3) | SID405526532 | 3 | 16.7 | active |
| PCDHB4 (protocadherin beta 4) | SID405527126 | 1 | 33.9 | active |
| PCDHB4 (protocadherin beta 4) | SID405527126 | 2 | 32.8 | active |
| PCDHB4 (protocadherin beta 4) | SID405527126 | 3 | 32.6 | active |
| ERBB4 (erb-b2 receptor tyrosine kinase 4) | SID405527928 | 1 | 74.6 | active |
| ERBB4 (erb-b2 receptor tyrosine kinase 4) | SID405527928 | 2 | 52.5 | active |
| ERBB4 (erb-b2 receptor tyrosine kinase 4) | SID405527928 | 3 | 60.6 | active |
| MAGI2 | SID405527768 | 1 | 54 | active |
| MAGI2 | SID405527768 | 2 | 50.9 | active |
| MAGI2 | SID405527768 | 3 | 37.3 | active |
| TBP (TATA-box binding protein) | SID405526382 | 1 | 65.3 | active |
| TBP (TATA-box binding protein) | SID405526382 | 2 | 57.4 | active |
| TBP (TATA-box binding protein) | SID405526382 | 3 | 59 | active |
| NME1 (NME/NM23 nucleoside diphosphate kinase 1) | SID405527077 | 1 | 44.9 | active |
| NME1 (NME/NM23 nucleoside diphosphate kinase 1) | SID405527077 | 1 | 66 | active |
| NME1 (NME/NM23 nucleoside diphosphate kinase 1) | SID405527077 | 2 | 38.8 | active |
| NME1 (NME/NM23 nucleoside diphosphate kinase 1) | SID405527077 | 2 | 66.1 | active |
| NME1 (NME/NM23 nucleoside diphosphate kinase 1) | SID405527077 | 3 | 37.1 | active |
| NME1 (NME/NM23 nucleoside diphosphate kinase 1) | SID405527077 | 3 | 52.8 | active |
| INO80E (INO80 complex subunit E) | SID405526905 | 1 | 72 | active |
| INO80E (INO80 complex subunit E) | SID405526905 | 2 | 75.1 | active |
| INO80E (INO80 complex subunit E) | SID405526905 | 3 | 66.9 | active |
| ATF7IP (activating transcription factor 7 interacting protein) | SID405527999 | 1 | 57.2 | active |
| ATF7IP (activating transcription factor 7 interacting protein) | SID405527999 | 2 | 67 | active |
| ATF7IP (activating transcription factor 7 interacting protein) | SID405527999 | 3 | 56.5 | active |
| DLG2 (discs large MAGUK scaffold protein 2) | SID405527517 | 1 | 64.2 | active |
| DLG2 (discs large MAGUK scaffold protein 2) | SID405527517 | 2 | 65.2 | active |
| DLG2 (discs large MAGUK scaffold protein 2) | SID405527517 | 3 | 66.4 | active |
| ALPK3 (alpha kinase 3) | SID405528558 | 1 | 39.2 | active |
| ALPK3 (alpha kinase 3) | SID405528558 | 2 | 48 | active |
| ALPK3 (alpha kinase 3) | SID405528558 | 3 | 41.2 | active |
| MED23 (mediator complex subunit 23) | SID405526998 | 1 | 40.8 | active |
| MED23 (mediator complex subunit 23) | SID405526998 | 2 | 51.1 | active |
| MED23 (mediator complex subunit 23) | SID405526998 | 3 | 51.1 | active |
| BNIP3 (BCL2 interacting protein 3) | SID405528037 | 1 | 36.9 | active |
| BNIP3 (BCL2 interacting protein 3) | SID405528037 | 2 | 30.4 | active |
| BNIP3 (BCL2 interacting protein 3) | SID405528037 | 3 | 33.9 | active |

Reprinted from above for reference:
| gene | PubChem SID | technical replicate | viability, normalised (%) | activity call |
| --- | --- | --- | --- | --- |
| RPL3 (ribosomal protein L3) | SID405526532 | 3 | 16.7 | active |
| PCDHB4 (protocadherin beta 4) | SID405527126 | 1 | 33.9 | active |
